Laboratory results reported in article doi:10.1101/2025.07.08.663682.
Like-named read-outs stand apart in the source and are kept apart here. These are yes or no findings as the source states them, for the method shown. In cells and extracts the contact can be indirect. Some results given as binding are weak or reduced against the parent protein; the word gives no strength.

The chains behind the UniProt entries cited, without tags or fusion partners.
UniProt Q9H6L5: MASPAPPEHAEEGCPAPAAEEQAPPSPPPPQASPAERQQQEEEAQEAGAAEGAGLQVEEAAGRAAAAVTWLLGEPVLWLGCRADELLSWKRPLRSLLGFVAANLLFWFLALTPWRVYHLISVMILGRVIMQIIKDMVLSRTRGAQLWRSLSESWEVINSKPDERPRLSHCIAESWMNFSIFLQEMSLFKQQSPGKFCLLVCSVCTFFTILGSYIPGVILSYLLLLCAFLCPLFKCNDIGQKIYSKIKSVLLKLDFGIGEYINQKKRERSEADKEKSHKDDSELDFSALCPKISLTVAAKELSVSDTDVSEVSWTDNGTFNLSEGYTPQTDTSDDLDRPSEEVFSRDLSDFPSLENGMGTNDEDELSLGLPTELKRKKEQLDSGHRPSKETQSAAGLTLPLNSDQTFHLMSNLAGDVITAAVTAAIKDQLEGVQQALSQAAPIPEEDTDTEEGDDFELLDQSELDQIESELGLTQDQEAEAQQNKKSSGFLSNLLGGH

Key:
FAM134B-V5 [1] = target: FAM134B-V5 (UniProt Q9H6L5); experiment: co-IP
FAM134B-V5 [2] = target: FAM134B-V5 (UniProt Q9H6L5); experiment: co-IP; remark: listed apart in the source

B1: Calnexin (CNX) (protein, UniProt P27824 21-592)
chain: HDGHDDDVIDIEDDLDDVIEEVEDSKPDTTAPPSSPKVTYKAPVPTGEVYFADSFDRGTLSGWILSKAKKDDTDDEIAKYDGKWEVEEMKESKLPGDKGLVLMSRAKHHAISAKLNKPFLFDTKPLIVQYEVNFQNGIECGGAYVKLLSKTPELNLDQFHDKTPYTIMFGPDKCGEDYKLHFIFRHKNPKTGIYEEKHAKRPDADLKTYFTDKKTHLYTLILNPDNSFEILVDQSVVNSGNLLNDMTPPVNPSREIEDPEDRKPEDWDERPKIPDPEAVKPDDWDEDAPAKIPDEEATKPEGWLDDEPEYVPDPDAEKPEDWDEDMDGEWEAPQIANPRCESAPGCGVWQRPVIDNPNYKGKWKPPMIDNPSYQGIWKPRKIPNPDFFEDLEPFRMTPFSAIGLELWSMTSDIFFDNFIICADRRIVDDWANDGWGLKKAADGAAEPGVVGQMIEAAEERPWLWVVYILTVALPVFLVILFCCSGKKQTSGMEYKKTDAPQPDVKEEEEEKEEEKDKGDEEEEGEEKLEEKQKSDAEEDGGTVSQEEEDRKPKAEEDEILNRSPRNRKPRRE
binding (FAM134B-V5 [1]): binds
binding (FAM134B-V5 [2]): binds
